The other results are listed elsewhere or left out.

By UniProt entry, the sequences of proteins in these tests, tags left out. Where a name states a change or a piece, a line headed by the entry shows the natural chain unless it says otherwise.
UniProt P10109: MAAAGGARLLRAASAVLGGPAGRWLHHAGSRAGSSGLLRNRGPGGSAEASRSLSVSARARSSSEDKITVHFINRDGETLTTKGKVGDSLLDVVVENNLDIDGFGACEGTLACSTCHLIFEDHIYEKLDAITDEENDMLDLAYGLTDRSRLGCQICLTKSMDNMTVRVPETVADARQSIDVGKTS
UniProt Q9NXK8: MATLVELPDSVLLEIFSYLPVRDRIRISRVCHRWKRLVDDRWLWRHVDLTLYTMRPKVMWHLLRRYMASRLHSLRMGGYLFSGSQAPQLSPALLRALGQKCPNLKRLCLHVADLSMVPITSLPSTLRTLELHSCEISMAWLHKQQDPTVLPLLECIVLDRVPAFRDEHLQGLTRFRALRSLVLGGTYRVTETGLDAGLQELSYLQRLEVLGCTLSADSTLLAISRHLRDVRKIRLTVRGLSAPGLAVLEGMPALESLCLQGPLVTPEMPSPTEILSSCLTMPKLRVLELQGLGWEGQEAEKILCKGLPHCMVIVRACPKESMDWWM
UniProt P31995: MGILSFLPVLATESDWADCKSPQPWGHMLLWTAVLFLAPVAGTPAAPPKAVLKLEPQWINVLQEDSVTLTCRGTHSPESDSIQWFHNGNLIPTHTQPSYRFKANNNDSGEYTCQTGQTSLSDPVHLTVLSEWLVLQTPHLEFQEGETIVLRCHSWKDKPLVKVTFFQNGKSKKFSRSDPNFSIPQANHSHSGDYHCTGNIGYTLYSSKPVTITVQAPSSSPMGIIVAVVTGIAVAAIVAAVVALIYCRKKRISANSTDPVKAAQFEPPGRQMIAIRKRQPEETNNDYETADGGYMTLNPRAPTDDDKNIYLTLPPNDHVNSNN
UniProt Q6UN15: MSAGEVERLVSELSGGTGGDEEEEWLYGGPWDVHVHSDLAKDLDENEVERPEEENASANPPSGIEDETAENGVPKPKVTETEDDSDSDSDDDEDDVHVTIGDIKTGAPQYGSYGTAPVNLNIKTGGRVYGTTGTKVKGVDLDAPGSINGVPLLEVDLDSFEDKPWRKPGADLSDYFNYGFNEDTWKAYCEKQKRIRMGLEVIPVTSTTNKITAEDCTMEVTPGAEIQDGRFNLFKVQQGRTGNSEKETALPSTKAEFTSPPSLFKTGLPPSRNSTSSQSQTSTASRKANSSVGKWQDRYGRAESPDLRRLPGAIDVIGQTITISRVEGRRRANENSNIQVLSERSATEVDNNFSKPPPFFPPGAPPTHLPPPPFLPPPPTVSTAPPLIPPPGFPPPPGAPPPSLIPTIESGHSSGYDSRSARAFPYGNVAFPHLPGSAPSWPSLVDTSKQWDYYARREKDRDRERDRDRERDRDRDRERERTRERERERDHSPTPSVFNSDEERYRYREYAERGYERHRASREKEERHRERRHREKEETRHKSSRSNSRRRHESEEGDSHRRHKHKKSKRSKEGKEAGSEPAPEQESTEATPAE
UniProt Q9Y5Y0: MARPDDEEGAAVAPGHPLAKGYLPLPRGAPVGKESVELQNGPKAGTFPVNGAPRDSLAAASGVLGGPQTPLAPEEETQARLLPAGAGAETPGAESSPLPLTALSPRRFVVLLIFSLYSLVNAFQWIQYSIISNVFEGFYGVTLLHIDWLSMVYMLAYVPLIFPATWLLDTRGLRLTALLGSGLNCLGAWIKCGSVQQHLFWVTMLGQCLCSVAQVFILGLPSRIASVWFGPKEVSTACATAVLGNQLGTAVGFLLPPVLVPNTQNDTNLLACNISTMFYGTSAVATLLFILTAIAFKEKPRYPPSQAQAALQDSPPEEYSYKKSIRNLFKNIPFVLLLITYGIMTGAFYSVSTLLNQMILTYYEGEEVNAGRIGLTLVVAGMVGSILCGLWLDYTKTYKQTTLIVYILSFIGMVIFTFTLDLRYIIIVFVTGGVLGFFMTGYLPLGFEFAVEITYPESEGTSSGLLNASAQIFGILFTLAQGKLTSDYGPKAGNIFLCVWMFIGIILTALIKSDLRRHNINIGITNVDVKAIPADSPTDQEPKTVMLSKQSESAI
UniProt Q9NUQ9: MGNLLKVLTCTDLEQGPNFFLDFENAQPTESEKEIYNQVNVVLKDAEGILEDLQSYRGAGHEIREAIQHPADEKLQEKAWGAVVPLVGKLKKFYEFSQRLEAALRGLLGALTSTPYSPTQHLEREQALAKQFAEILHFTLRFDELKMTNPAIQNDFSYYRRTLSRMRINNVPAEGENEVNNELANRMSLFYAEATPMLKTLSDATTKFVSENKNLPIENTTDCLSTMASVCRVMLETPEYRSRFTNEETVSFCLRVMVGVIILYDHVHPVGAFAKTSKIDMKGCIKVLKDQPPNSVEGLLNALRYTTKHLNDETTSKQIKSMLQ
UniProt P07954: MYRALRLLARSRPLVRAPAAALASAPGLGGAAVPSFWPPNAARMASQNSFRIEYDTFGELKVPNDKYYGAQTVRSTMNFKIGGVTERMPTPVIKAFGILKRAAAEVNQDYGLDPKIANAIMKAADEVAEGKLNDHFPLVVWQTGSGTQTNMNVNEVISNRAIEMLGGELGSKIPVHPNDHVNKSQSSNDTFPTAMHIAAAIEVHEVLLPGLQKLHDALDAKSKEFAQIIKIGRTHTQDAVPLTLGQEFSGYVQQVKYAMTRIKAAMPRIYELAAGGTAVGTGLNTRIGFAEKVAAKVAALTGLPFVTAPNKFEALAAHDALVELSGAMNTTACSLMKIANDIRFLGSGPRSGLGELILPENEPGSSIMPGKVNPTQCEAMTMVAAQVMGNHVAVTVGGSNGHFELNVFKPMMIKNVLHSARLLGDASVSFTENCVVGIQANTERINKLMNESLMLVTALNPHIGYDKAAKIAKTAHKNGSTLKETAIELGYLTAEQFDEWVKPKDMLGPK
UniProt Q8N3X1: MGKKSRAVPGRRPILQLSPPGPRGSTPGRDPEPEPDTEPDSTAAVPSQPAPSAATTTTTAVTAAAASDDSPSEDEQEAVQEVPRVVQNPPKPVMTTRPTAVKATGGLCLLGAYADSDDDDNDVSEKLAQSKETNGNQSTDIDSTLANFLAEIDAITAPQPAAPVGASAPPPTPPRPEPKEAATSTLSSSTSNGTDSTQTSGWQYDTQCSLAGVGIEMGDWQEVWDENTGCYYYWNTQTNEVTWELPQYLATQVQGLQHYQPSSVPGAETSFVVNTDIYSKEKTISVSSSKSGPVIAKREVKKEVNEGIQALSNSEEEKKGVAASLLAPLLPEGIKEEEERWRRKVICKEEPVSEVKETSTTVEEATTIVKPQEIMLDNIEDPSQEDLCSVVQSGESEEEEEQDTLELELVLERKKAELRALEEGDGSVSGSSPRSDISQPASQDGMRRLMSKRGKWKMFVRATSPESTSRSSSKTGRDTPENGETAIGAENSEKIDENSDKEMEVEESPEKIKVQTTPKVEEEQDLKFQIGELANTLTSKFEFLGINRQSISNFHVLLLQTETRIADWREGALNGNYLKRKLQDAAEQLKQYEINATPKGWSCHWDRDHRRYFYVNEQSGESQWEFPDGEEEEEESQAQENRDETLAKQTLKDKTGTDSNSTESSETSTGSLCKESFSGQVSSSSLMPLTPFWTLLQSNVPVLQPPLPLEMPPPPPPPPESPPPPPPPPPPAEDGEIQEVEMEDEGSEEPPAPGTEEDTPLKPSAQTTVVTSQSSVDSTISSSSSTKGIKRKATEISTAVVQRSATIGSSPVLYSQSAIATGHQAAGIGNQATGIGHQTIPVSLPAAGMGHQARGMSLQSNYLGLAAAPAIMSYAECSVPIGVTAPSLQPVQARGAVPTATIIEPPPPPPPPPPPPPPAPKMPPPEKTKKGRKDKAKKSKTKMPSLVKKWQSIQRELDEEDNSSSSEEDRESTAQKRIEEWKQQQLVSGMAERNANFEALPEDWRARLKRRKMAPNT
UniProt Q96IG2: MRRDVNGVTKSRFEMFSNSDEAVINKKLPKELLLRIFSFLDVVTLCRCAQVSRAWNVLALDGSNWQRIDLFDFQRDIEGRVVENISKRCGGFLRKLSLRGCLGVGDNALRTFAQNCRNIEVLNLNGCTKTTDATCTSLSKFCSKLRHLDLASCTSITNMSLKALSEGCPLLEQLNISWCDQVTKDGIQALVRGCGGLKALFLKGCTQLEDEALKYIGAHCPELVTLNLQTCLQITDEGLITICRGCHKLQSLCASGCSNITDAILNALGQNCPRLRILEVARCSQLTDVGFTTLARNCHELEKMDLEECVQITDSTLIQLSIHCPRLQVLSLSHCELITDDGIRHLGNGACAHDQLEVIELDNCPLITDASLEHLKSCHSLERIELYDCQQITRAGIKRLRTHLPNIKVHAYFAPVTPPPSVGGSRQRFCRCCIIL
UniProt Q96CP2: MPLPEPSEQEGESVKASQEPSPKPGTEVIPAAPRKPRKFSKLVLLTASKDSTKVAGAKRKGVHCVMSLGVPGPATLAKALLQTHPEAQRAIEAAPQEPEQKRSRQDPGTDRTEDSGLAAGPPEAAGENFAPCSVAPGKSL
UniProt P62942, whole entry, looked up: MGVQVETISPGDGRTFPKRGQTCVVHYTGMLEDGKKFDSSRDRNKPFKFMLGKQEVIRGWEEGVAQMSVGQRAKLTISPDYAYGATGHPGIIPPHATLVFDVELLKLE
UniProt A6NHQ2: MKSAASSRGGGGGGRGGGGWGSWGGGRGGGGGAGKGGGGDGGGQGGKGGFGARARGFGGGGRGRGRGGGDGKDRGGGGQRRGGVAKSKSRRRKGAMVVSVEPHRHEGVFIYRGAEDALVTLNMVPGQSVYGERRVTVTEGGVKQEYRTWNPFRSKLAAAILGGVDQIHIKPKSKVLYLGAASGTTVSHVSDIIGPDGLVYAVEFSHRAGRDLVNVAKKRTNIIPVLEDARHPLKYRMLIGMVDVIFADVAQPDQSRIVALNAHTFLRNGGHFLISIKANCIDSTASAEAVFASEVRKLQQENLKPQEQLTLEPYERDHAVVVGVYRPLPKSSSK
UniProt Q9UKT4: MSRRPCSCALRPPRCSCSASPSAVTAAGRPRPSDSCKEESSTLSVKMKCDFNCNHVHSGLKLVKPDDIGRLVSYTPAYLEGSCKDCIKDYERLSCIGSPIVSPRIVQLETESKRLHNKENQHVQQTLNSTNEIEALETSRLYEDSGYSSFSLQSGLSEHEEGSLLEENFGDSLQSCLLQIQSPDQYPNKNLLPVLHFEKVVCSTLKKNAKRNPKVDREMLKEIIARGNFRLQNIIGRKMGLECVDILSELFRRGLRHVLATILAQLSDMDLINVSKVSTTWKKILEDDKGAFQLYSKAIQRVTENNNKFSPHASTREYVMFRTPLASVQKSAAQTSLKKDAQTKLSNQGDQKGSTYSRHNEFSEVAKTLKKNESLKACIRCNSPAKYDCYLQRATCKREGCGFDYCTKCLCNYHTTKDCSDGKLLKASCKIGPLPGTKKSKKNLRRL
UniProt Q8NEZ5: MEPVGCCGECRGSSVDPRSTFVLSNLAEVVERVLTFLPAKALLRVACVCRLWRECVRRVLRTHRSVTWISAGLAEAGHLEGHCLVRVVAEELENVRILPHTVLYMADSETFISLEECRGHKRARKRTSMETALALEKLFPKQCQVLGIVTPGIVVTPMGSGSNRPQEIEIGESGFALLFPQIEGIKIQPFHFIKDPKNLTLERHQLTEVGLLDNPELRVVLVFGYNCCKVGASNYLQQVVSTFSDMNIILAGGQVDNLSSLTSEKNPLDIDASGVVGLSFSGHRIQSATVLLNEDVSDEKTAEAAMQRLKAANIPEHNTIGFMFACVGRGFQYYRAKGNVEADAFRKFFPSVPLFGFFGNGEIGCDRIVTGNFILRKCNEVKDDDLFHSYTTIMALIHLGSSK
UniProt O95302: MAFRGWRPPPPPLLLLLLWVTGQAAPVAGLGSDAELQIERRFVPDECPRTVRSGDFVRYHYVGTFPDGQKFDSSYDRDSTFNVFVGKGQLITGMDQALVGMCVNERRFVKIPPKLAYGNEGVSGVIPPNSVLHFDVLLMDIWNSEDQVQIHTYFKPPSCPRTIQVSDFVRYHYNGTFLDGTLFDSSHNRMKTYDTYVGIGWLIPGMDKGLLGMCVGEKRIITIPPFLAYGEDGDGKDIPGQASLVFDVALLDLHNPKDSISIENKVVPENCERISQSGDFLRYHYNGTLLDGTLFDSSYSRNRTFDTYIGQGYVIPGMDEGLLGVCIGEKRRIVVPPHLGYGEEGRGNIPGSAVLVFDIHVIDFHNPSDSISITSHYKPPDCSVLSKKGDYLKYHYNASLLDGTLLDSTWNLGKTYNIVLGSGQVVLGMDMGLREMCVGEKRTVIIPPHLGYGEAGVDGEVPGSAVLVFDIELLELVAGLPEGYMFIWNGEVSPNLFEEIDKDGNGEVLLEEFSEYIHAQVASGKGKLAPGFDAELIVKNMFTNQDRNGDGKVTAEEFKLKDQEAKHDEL
UniProt Q6P4F2: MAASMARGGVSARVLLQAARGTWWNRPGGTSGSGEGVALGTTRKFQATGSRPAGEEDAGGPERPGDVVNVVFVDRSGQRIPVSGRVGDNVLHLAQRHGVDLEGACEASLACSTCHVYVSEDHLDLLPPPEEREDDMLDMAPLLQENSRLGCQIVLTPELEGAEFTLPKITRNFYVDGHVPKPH
UniProt Q9Y421: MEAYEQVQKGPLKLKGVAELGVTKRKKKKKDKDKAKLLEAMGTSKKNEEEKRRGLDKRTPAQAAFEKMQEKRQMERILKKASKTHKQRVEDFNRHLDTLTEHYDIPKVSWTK

Compound in this assay: CN(C)CC(=O)Nc1ccc2[nH]c(=O)c3ccccc3c2c1
The assay is described as follows: log2 fold change, soluble protein after heating vs DMSO (PISA); higher = thermal stabilisation; K562 cells, 10 uM, 30 min; active = over 0.2 and 3.5 SD of the protein, either way, in both replicates (recomputed). Summed up:
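Quantification of soluble protein used TMTpro 16plex LC-MS/MS, with channel sums equalised. Samples were the supernatant after 21,000xg for 90 min of pooled aliquots from K562 cells (2×10^6 cells/mL) treated with 10 μM compound for 30 min, heated for 3 min over 48°C-58°C, and extracted in PBS with 0.5% NP-40 at 4°C. Values, from duplicates, describe thermal stability against control samples on a log2 fold-change scale.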
For FDX1 (UniProt P10109), the log2 fold change was inactive: -0.009.

Regarding FBXL12 (UniProt Q9NXK8), the log2 fold change was inactive: 0.106. As for FKBPL (UniProt Q9UIM3), the log2 fold change is inactive: -0.05. On to FCGR2C (UniProt P31995), for which the log2 fold change is inactive: -0.114. Take FANCB (UniProt Q8NB91): the log2 fold change is inactive: -0.064. For the target FIP1L1 (UniProt Q6UN15), the log2 fold change is inactive: -0.018. As for FLVCR1 (UniProt Q9Y5Y0), the log2 fold change was inactive: -0.061. As for FAM49B (UniProt Q9NUQ9), the figure is inactive: 0.014; as for FAM210A (UniProt Q96ND0), inactive: 0.026. As to FBXO30 (UniProt Q8TB52), the log2 fold change was inactive: -0.003. In the case of FKBP2 (UniProt P26885), the log2 fold change was inactive: -0.026.

Turning to FKBP15 (UniProt Q5T1M5), the log2 fold change is inactive: 0.026.

With FAR1 (UniProt Q8WVX9), the log2 fold change was inactive: 0.028. For the target FH (UniProt P07954), the log2 fold change was inactive: 0.01. With FLII (UniProt Q13045), the log2 fold change is inactive: -0.004. Take FNBP4 isoform 2 (UniProt Q8N3X1): the log2 fold change is inactive: -0.041. With FAM98B (UniProt Q52LJ0), the log2 fold change was inactive: 0.044.

FBXL20 (UniProt Q96IG2): the log2 fold change was inactive: -0.011. In the case of FBXL18 isoform 4 (UniProt Q96ME1), the log2 fold change is inactive: 0.022. Regarding FLYWCH2 (UniProt Q96CP2), the log2 fold change is inactive: 0. Regarding FAM76B (UniProt Q5HYJ3), the log2 fold change is inactive: -0.168. Turning to FASN (UniProt P49327), the log2 fold change is inactive: 0.019.

For FKBP1A (UniProt P62942), the log2 fold change is inactive: 0.065. In the case of FBLL1 (UniProt A6NHQ2) it was inactive: -0.119. Consider FBXO5 (UniProt Q9UKT4), for which the log2 fold change was inactive: -0.045. With FARSB (UniProt Q9NSD9), the log2 fold change is inactive: 0.

FLOT1 (UniProt O75955): the log2 fold change is inactive: -0.112. As to FCSK isoform 2 (UniProt Q8N0W3), the log2 fold change was inactive: -0.008. As to FBXO22 (UniProt Q8NEZ5), the log2 fold change is inactive: 0.047. As for FN3K (UniProt Q9H479), the figure is inactive: -0.014; as for FCGR2A (UniProt P12318), inactive: -0.092. In the case of FN3KRP (UniProt Q9HA64) it was inactive: -0.017. In the case of FAM98A (UniProt Q8NCA5) it was inactive: -0.003; in that of FKBP9 (UniProt O95302), inactive: 0.218. For the target FAU (UniProt P62861), the log2 fold change was inactive: -0.154. As for FKBP5 (UniProt Q13451), the figure is inactive: 0.118; as for FDX2 (UniProt Q6P4F2), inactive: 0.095. Regarding FAM32A (UniProt Q9Y421), the log2 fold change was inactive: -0.048.

The record behind these values is the supplement of paper PMC10849652.
